{
  "source": "PubChem BioAssay AID504834",
  "about": "(National Center for Advancing Translational Sciences (NCATS), 2011)",
  "note": "Values joined by “and” are separate entries in the source; they are usually repeats but may differ in a detail not shown here. Identical values can stand only once. Hit rate of the full screen: of about 320,000 compounds, about 22,000 (6.9%) were called active. Inconclusive means that the source gave no clear call. Such entries were picked first, then a sample of the others. The call rests on the fitted dose curve; in most records, active means well fitted inhibition curve with a large enough effect; inconclusive means small, poorly fitted or top-dose-only effect, or another doubt; inactive means no such curve, though single readings can be large or run the other way. A potency beside an inconclusive call is a rough fit, not a confirmed value. Potency means the concentration at half of the fitted maximal effect.",
  "data": [
    {"assay": "Primary qHTS for delayed death inhibitors of the malarial parasite plastid, 96 hour incubation", "settings": "P. falciparum luciferase reporter growth; series mostly up to 28.7 µM", "how_it_was_run": "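Delayed-death screen, second-generation endpoint: infected erythrocytes, 2% hematocrit, 0.05% parasitemia final; 96 hours at 37 C, 5% CO2; luciferase detection reagent; luminescence decrease equals reduced growth.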", "values": [
      {"smiles": "Cc1ccc(N2C(N)=NC(N)=NC23CCCC3)c(C)c1", "Potency": "inconclusive: 10.4 µM [inhibitor, single point]"},
      {"smiles": "CCCc1cc(=O)oc2c3c(cc(OCC(=O)NCCCn4ccnc4)c12)OC(C)(C)CC3", "Potency": "inconclusive: 0.415 µM [inhibitor, full curve, poor fit]"},
      {"smiles": "CCN(CC)C(=O)CSc1ncnc2c1nnn2-c1ccc(OC)cc1", "Potency": "inconclusive: 11.7 µM [inhibitor, single point]"},
      {"smiles": "O=C(NCCOc1ccccc1)C(=O)c1c[nH]c2ccccc12", "Potency": "inactive"},
      {"smiles": "O=C(NCc1cccnc1)c1ccc(Br)o1", "Potency": "inactive"},
      {"smiles": "C=CCNC(=S)NNC(=O)c1ccc2c(c1)OCO2", "Potency": "inactive"},
      {"smiles": "CCS(=O)(=O)N1Cc2ccccc2CC1C(=O)N1CCN(c2cccc(C)c2C)CC1", "note": "(stereo unspecified)", "Potency": "inconclusive: 18.5 µM [inhibitor, single point]"},
      {"smiles": "COc1ccc(C(Nc2ccccn2)c2c(NC(=O)c3ccco3)sc(C)c2C)cc1", "note": "(stereo unspecified)", "Potency": "inconclusive: 1.85 µM [inhibitor, full curve, poor fit]"},
      {"smiles": "O=C(CN1CCCSc2ccccc21)N1CCN(S(=O)(=O)c2cccc(F)c2)CC1", "Potency": "inconclusive: 18.5 µM [inhibitor, single point]"},
      {"smiles": "Cc1ccc(S(=O)(=O)N2CCN(C(=O)COC(=O)c3ccc(C(C)(C)C)cc3)CC2)c(C)c1", "Potency": "inconclusive: 18.5 µM [inhibitor, single point]"},
      {"smiles": "O=C(NC(=O)c1ccc(F)cc1)Nc1nc(-c2cccs2)cc(C(F)(F)F)n1", "Potency": "inactive"},
      {"smiles": "COc1ccc(C(=O)OC2CC[C@@]3(C)C4CCC5[C@]6(O)CC(O)[C@@]7(O)C(CN8CC(C)CCC8[C@@]7(C)O)[C@]6(O)C[C@@]53O[C@]24O)cc1OC", "note": "(stereo partly specified)", "Potency": "inconclusive: 4.15 µM [inhibitor, partial curve]"},
      {"smiles": "Cc1ccccc1CNC(=O)Nc1ccc(Cl)cc1", "Potency": "inactive"},
      {"smiles": "CN(CCOc1ccc(-c2ccn(S(=O)(=O)c3cccc4ccccc34)n2)cc1)c1ccccn1", "Potency": "active: 9.28 µM"},
      {"smiles": "CCCN(CCC)CCCNC(=O)CNC(=O)c1nn(-c2ccc(OC)cc2)c(=O)c2ccccc12", "Potency": "inconclusive: 11.7 µM [inhibitor, single point]"},
      {"smiles": "COc1ccc(C(=O)CCC(=O)Nc2cccnc2)cc1OC", "Potency": "inactive"},
      {"smiles": "Cc1ccc(C)c(SCC(=O)OCC(=O)NCCNC(=O)COC(=O)CSc2cc(C)ccc2C)c1", "Potency": "inactive"},
      {"smiles": "CC(NC(=O)c1ccco1)C(c1cccs1)N1CCN(c2ccccc2)CC1", "note": "(stereo unspecified)", "Potency": "active: 13.1 µM"},
      {"smiles": "Nc1nc(Nc2ccccc2Br)nc(C(F)(F)F)n1", "Potency": "active: 10.4 µM"},
      {"smiles": "O=C(Nc1ccccc1N1CCCCC1)C1CCN(S(=O)(=O)c2ccccc2C(F)(F)F)CC1", "Potency": "inconclusive: 1.85 µM [inhibitor, single point]"},
      {"smiles": "COc1ccc2sc(-c3ccccc3OC)c(-c3ccc(OC)c(F)c3)c2c1", "Potency": "inconclusive: 3.7 µM [inhibitor, partial curve, poor fit]"},
      {"smiles": "COC(=O)c1[nH]c2cccc(OC)c2c1NC(=O)CCN1CCC(C(N)=O)CC1", "Potency": "inconclusive: 0.0828 µM [inhibitor, full curve, poor fit]"},
      {"smiles": "COc1cc2cc(C)c(SCC(=O)N3CCN(C(=O)c4ccco4)CC3)nc2cc1OC", "Potency": "inconclusive: 9.28 µM [inhibitor, partial curve]"},
      {"smiles": "O=C(NNc1c2ccccc2nc2ccccc12)c1ccc(O)cc1O", "Potency": "inconclusive: 13.1 µM [inhibitor, single point]"},
      {"smiles": "CCN(CC)C(=O)C1CCCN(C(=O)c2cc(COc3cccc(OC)c3)on2)C1", "note": "(stereo unspecified)", "Potency": "active: 9.28 µM"},
      {"smiles": "Cc1cc(OC(C)C(=O)NCc2ccncc2)c2c3c(c(=O)oc2c1)CCC3", "note": "(stereo unspecified)", "Potency": "inconclusive: 11.7 µM [inhibitor, single point]"},
      {"smiles": "CC(C)CNc1ncnc2c1cnn2Cc1ccc(Cl)cc1", "Potency": "active: 11.7 µM"},
      {"smiles": "CC(Sc1nnc(-c2ccc(Cl)cc2)n1N)C(=O)NCC1CCCO1", "note": "(stereo unspecified)", "Potency": "inactive"},
      {"smiles": "COc1ccc2c(C)c(CC(=O)N3C[C@H]4C[C@@H](C3)c3cccc(=O)n3C4)c(=O)oc2c1OC", "Potency": "inconclusive: 13.1 µM [inhibitor, partial curve, poor fit]"},
      {"smiles": "O=C(N[C@@H]1CCC(=O)N(CC[C@H](Sc2ccccc2)c2ccccc2)CC1)OCc1ccccc1", "Potency": "inconclusive: 18.5 µM [inhibitor, single point]"},
      {"smiles": "COc1ccc(CCn2c(=N)c(C(=O)NCC3CCCO3)cc3c(=O)n4ccccc4nc32)cc1OC", "note": "(stereo unspecified)", "Potency": "inconclusive: 11.7 µM [inhibitor, partial curve, poor fit]"},
      {"smiles": "COCCNC(=O)c1ccccc1NC(=O)Cc1ccccc1[N+](=O)[O-]", "Potency": "inconclusive: 18.5 µM [inhibitor, single point]"},
      {"smiles": "COc1ccc(C(=O)C2CCCN(C(=O)c3cccc(Cn4cccn4)c3)C2)cc1F", "note": "(stereo unspecified)", "Potency": "inconclusive: 14.7 µM [inhibitor, single point]"},
      {"smiles": "O=C(CCCCCn1nnc2ccccc2c1=O)Nc1ccccc1Cl", "Potency": "inactive"},
      {"smiles": "O=S(=O)(c1ccc(-c2cc(C(F)(F)F)on2)s1)N1CCCC1", "Potency": "inconclusive: 0.233 µM [inhibitor, partial curve, poor fit]"},
      {"smiles": "Oc1ccc(CNc2ccccc2O)cc1", "Potency": "inconclusive: 0.0047 µM [inhibitor, full curve, poor fit]"},
      {"smiles": "CCOc1ccc(CN(CC)C(=O)Cc2c[nH]c3ccccc23)cc1OC", "Potency": "inconclusive: 10.4 µM [inhibitor, single point]"},
      {"smiles": "COc1ccc(N2CCN(C(CNC(=O)C(=O)NCCc3c[nH]c4ccccc34)c3ccco3)CC2)cc1", "note": "(stereo unspecified)", "Potency": "inconclusive: 11.7 µM [inhibitor, single point]"},
      {"smiles": "Nc1c(C(=O)N/N=C/c2ccc(Cl)cc2)cnn1-c1ccccc1", "Potency": "inactive"},
      {"smiles": "COCC(=O)O[C@]1(CCN(C)CCCc2nc3ccccc3[nH]2)CCc2cc(F)ccc2[C@@H]1C(C)C", "Potency": "active: 2.62 µM and active: 2.39 µM"},
      {"smiles": "C=CCN1C(=O)C(CC(=O)NCC)SC1=Nc1cc(Cl)ccc1Cl", "note": "(stereo unspecified)", "Potency": "active: 1.17 µM"},
      {"smiles": "CN(C)C(/C=C/Nc1cccc([N+](=O)[O-])c1)=C(C#N)C#N", "Potency": "inactive"},
      {"smiles": "CCOc1cccc(C2/C(=C(\\O)c3ccc4c(c3)OCCO4)C(=O)C(=O)N2Cc2ccncc2)c1", "note": "(stereo unspecified)", "Potency": "inconclusive: 18.5 µM [inhibitor, single point]"},
      {"smiles": "COc1ccc(CN2C(=O)c3cccnc3C2=O)cc1S(=O)(=O)N1CC(C)CC(C)C1", "note": "(stereo unspecified)", "Potency": "inconclusive: 4.65 µM [inhibitor, full curve, poor fit]"},
      {"smiles": "Brc1ccc(-c2ccc(CNCc3ccccn3)o2)cc1", "Potency": "inconclusive: 0.0033 µM [inhibitor, full curve, poor fit]"},
      {"smiles": "CCc1ccc(N2C(=O)CC(Cn3nc(C)cc3C)C2=O)cc1", "note": "(stereo unspecified)", "Potency": "inactive"},
      {"smiles": "COc1ccc(NC(=O)CN(C)C(=O)C2CC(=O)N(Cc3ccc(C)cc3)C2)cc1", "note": "(stereo unspecified)", "Potency": "inconclusive: 20.8 µM [inhibitor, partial curve, poor fit]"},
      {"smiles": "CCN(Cc1ccc(OC)c(F)c1)C(=O)c1oc2ccccc2c1COC", "Potency": "inconclusive: 14.7 µM [inhibitor, single point]"},
      {"smiles": "CCOc1ccc(OCc2ccc(C(=O)N3CCOCC3)cc2)cc1", "Potency": "inactive"},
      {"smiles": "Cc1ccc(S(=O)(=O)N2CCC(C(=O)Nc3ccncc3)CC2)cc1", "Potency": "inconclusive: 10.4 µM [inhibitor, partial curve]"},
      {"smiles": "Cc1cc(C)n(-c2ncc3c(n2)N(CCO)CCOC3=O)n1", "Potency": "inconclusive: 11.7 µM [inhibitor, partial curve]"},
      {"smiles": "CC(C)Cc1cc(C(=O)Nc2cc(C(F)(F)F)ccc2Cl)no1", "Potency": "inconclusive: 13.1 µM [inhibitor, partial curve, poor fit]"},
      {"smiles": "Cc1cc(C)nc(NC(=S)Nc2cccc(Cl)c2Cl)c1", "Potency": "inconclusive: 8.28 µM [inhibitor, partial curve]"},
      {"smiles": "O=C(CN1CCN(S(=O)(=O)c2ccc3ccccc3c2)CC1)NC(=O)NC1CCCCC1", "Potency": "inconclusive: 9.28 µM [inhibitor, partial curve, poor fit]"},
      {"smiles": "CC(C)(C)N1C(=O)[C@H]2[C@@H](c3ccc(Br)cc3)N3C(=O)N(c4ccc(Br)cc4)C(=O)[C@@]3(Cc3ccccc3)[C@H]2C1=O", "Potency": "inconclusive: 0.262 µM [inhibitor, full curve, poor fit]"},
      {"smiles": "O=C(C1CC(=O)N(c2ccccc2)C1)N1CCN(c2ccc(F)cc2)CC1", "note": "(stereo unspecified)", "Potency": "inactive"},
      {"smiles": "O=Cc1ccccc1OCCOc1ccc([N+](=O)[O-])cc1", "Potency": "inconclusive: 18.5 µM [inhibitor, single point]"},
      {"smiles": "C=CCN1C(=O)c2ccc(C(=O)N3CCN(S(=O)(=O)c4ccccc4Br)CC3)cc2C1=O", "Potency": "inactive"},
      {"smiles": "Cc1ccc(C(=O)OCn2ncc(Cl)c(Cl)c2=O)cc1", "Potency": "inconclusive: 2.33 µM [inhibitor, partial curve, poor fit]"},
      {"smiles": "CCCC(O)(CCC)C(=O)NN1CCCCC1", "Potency": "inconclusive: 0.586 µM [inhibitor, full curve, poor fit]"},
      {"smiles": "O=[N+]([O-])c1ccccc1CNCCc1c[nH]c2ccccc12", "Potency": "inactive"},
      {"smiles": "O=C(CSc1nnc(C2CC2)n1Cc1ccccc1)c1cc2ccccc2o1", "Potency": "inconclusive: 18.5 µM [inhibitor, single point]"},
      {"smiles": "COc1ccc(OC)c(NC(=O)Nc2cccnc2)c1", "Potency": "inactive"},
      {"smiles": "CC1CN(C(=O)CCc2cc(C(C)(C)C)c(O)c(C(C)(C)C)c2)CC(C)O1", "note": "(stereo unspecified)", "Potency": "active: 7.38 µM"},
      {"smiles": "COCCNC(=O)C(c1ccc(O)cc1)N(Cc1ccccc1)C(=O)CCC(=O)Nc1ccccn1", "note": "(stereo unspecified)", "Potency": "inconclusive: 18.5 µM [inhibitor, single point]"},
      {"smiles": "CSc1nc(-c2ccccc2)ccc1C(N)=O", "Potency": "inconclusive: 18.5 µM [inhibitor, single point]"}
    ]}
  ]
}
